The values below come from publication PMC6050238.

Amino acid sequences for entries named in this document (tags omitted).
UniProt Q13620: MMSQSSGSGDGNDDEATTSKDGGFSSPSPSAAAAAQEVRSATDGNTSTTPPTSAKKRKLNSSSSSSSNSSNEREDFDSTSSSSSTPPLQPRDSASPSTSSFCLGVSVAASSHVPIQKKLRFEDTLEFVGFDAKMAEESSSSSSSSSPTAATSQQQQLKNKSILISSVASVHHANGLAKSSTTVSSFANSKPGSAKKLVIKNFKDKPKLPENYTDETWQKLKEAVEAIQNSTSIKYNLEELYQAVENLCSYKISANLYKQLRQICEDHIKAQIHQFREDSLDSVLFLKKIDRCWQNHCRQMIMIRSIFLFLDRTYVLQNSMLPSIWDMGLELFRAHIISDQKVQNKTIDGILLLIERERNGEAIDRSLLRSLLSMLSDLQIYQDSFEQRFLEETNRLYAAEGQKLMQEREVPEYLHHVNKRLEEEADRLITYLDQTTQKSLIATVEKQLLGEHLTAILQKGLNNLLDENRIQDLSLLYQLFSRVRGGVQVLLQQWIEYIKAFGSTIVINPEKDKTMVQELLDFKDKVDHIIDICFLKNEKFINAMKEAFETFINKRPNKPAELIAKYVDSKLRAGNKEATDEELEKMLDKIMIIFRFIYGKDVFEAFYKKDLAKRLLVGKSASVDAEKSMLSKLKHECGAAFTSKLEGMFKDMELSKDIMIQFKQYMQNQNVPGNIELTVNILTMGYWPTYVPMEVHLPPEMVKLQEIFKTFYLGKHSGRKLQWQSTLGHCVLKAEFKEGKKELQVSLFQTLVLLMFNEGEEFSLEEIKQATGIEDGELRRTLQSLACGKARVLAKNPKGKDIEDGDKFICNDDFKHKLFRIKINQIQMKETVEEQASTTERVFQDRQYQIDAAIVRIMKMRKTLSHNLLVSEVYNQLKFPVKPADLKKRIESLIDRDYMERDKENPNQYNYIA

Assay [1] addresses FLAG-tagged full-length RepID (replication initiation determinant protein) (UniProt Q8WWQ0). Briefly: co-IP; FLAG immunoprecipitation (anti-FLAG antibody / FLAG-agarose beads) of soluble nuclear and chromatin-bound fractions of U2OS cells expressing FLAG-RepID fragments; overnight at 4 °C, washed three times with PBS; co-precipitated cullins detected by immunoblot. A general note: A western blot detects proteins with antibodies after separation by electrophoresis.

The target of assay [2] is CUL4A (endogenous) (human (endogenous in U2OS)) (UniProt Q13619). Briefly: co-IP; immunoprecipitation with antibodies directed against endogenous CUL4A and CUL4B (Supplementary Fig. 1c).
Assay [3] deals with CUL4B (endogenous) (human (endogenous in U2OS)) (UniProt Q13620). Described as above.

Results are given in words; binding and its absence hold for the method and conditions named. In cells and extracts the contact can be indirect. Some binding calls cover weakened binding; strength is not graded here.

In the case of “CUL4B (endogenous) (from UniProt Q13620 1-913)”, in assay [1], the binding result is recorded as “binds”.

Turning to “CUL4A (endogenous) (from UniProt Q13619 1-759)”, in assay [1], the binding entry is “binds”.

In the case of “RepID (co-precipitated with antibodies against endogenous CUL4A and CUL4B) (from UniProt Q8WWQ0 1-1821)”, the binding entry in assay [2] and in assay [3] was “binds” throughout.
